Laboratory results: PubChem BioAssay AID1259308 (NCATS, 2017)
The deposit covers about 59,000 reagents; shown is an unselected part. About 1,510 of them (2.6%) were called active. 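Calls use total luciferase alone and ignore viability, so some active siRNAs may act by altering cell number.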 Reagents against one gene are numbered here. Further read-outs or replicates are left out here.

Aim: 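Genes whose loss raises luciferase production in HEK293 cells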 (primary screen)
Cell system: human HEK293 embryonic kidney cells stably expressing firefly luciferase (HEK-CMV-Luc2-Hygro)
Reagents: single siRNA against human genes, 0.8 pmol siRNA per well
Time to read-out: 72 h
Measured: 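Luciferase light (ONE-Glo) measured on one replicate plate set and viability (CellTiter-Glo) on the other, scaled to a negative control siRNA, with robust z-scores and luciferase per cell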
Scale: total luciferase, z-score: higher = more reporter protein produced
Rule for the call: 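An siRNA counts as active if its total luciferase robust z-score exceeds 3; genes with two or more such siRNAs out of three were retested with fresh siRNAs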
Calls: active = raised luciferase; inactive = no rise

ACSF2 (GeneID 80221) #1 showed total luciferase, z-score 5.32; active.
After knock-down of ACSF2 (GeneID 80221) #2, the record shows total luciferase, z-score 4.46; active.
Knock-down of ACSF2 (GeneID 80221) #3 resulted in: total luciferase, z-score -0.36; inactive.
Knock-down of LRRFIP1 (GeneID 9208) #1 came out at: total luciferase, z-score 2.29; inactive.
LRRFIP1 (GeneID 9208) #2 showed total luciferase, z-score -1.49; inactive.
LRRFIP1 (GeneID 9208) #3 showed total luciferase, z-score -0.74; inactive.
Knock-down of ANKFY1 (GeneID 51479) #1 came out at: total luciferase, z-score -1.08; inactive.
Against ANKFY1 (GeneID 51479) #2, the values are total luciferase, z-score 0.667; inactive.
ANKFY1 (GeneID 51479) #3 scored total luciferase, z-score 1.43; inactive.
HEATR6 (GeneID 63897) #1 scored total luciferase, z-score 2.85; inactive.
Knock-down of HEATR6 (GeneID 63897) #2 resulted in: total luciferase, z-score -0.0477; inactive.
HEATR6 (GeneID 63897) #3 showed total luciferase, z-score 1.84; inactive.
With knock-down of TIGD7 (GeneID 91151) #1 the results were total luciferase, z-score 0.0236; inactive.
TIGD7 (GeneID 91151) #2 showed total luciferase, z-score -1.88; inactive.
For TIGD7 (GeneID 91151) #3, the entry reads total luciferase, z-score -0.549; inactive.
With knock-down of RSBN1 (GeneID 54665) #1 the results were total luciferase, z-score -0.346; inactive.
For RSBN1 (GeneID 54665) #2, the entry reads total luciferase, z-score 1.33; inactive.
Depletion of RSBN1 (GeneID 54665) #3 gave: total luciferase, z-score 0.89; inactive.
Against MIOS (GeneID 54468) #1, the values are total luciferase, z-score -0.758; inactive.
MIOS (GeneID 54468) #2 gave total luciferase, z-score 0.286; inactive.
Depletion of MIOS (GeneID 54468) #3 came out at: total luciferase, z-score 0.368; inactive.
GCAT (GeneID 23464) #1 gave total luciferase, z-score -0.919; inactive.
GCAT (GeneID 23464) #2 showed total luciferase, z-score -0.335; inactive.
For GCAT (GeneID 23464) #3, the entry reads total luciferase, z-score -0.632; inactive.
With knock-down of PAX5 (GeneID 5079) #1, the record shows total luciferase, z-score 0.0528; inactive.
With knock-down of PAX5 (GeneID 5079) #2 the results were total luciferase, z-score 0.0545; inactive.
PAX5 (GeneID 5079) #3 scored total luciferase, z-score -0.862; inactive.
CDC50B (GeneID 161291) #1 scored total luciferase, z-score 0.00423; inactive.
With knock-down of CDC50B (GeneID 161291) #2 the results were total luciferase, z-score -0.0446; inactive.
Against CDC50B (GeneID 161291) #3, the entry reads total luciferase, z-score 0.843; inactive.
After knock-down of LOC653513 (GeneID 653513) #1, the screen gave total luciferase, z-score 0.43; inactive.
LOC653513 (GeneID 653513) #2 gave total luciferase, z-score -0.0255; inactive.
Knock-down of LOC653513 (GeneID 653513) #3 came out at: total luciferase, z-score 0.288; inactive.
RPL15P3 (GeneID 653232) #1 showed total luciferase, z-score -2.74; inactive.
RPL15P3 (GeneID 653232) #2 showed total luciferase, z-score -2.86; inactive.
Silencing of RPL15P3 (GeneID 653232) #3 gave: total luciferase, z-score -2.7; inactive.
Depletion of TTC39C (GeneID 125488) #1 resulted in: total luciferase, z-score 0.131; inactive.
After knock-down of TTC39C (GeneID 125488) #2, the screen gave total luciferase, z-score 0.0665; inactive.
Against TTC39C (GeneID 125488) #3 the deposit lists total luciferase, z-score -0.849; inactive.
PCOLCE (GeneID 5118) #1 gave total luciferase, z-score 0.234; inactive.
With knock-down of PCOLCE (GeneID 5118) #2, the screen gave total luciferase, z-score 0.305; inactive.
Against PCOLCE (GeneID 5118) #3 the deposit lists total luciferase, z-score 1.44; inactive.

Part of the list above in another layout.
{"Target gene": "RPL15P3 (GeneID 653232)", "reagent no.": 3, "total luciferase, z-score": -2.7, "activity call": "inactive"}
{"Target gene": "TTC39C (GeneID 125488)", "reagent no.": 1, "total luciferase, z-score": 0.131, "activity call": "inactive"}
{"Target gene": "TTC39C (GeneID 125488)", "reagent no.": 2, "total luciferase, z-score": 0.0665, "activity call": "inactive"}
{"Target gene": "TTC39C (GeneID 125488)", "reagent no.": 3, "total luciferase, z-score": -0.849, "activity call": "inactive"}
{"Target gene": "PCOLCE (GeneID 5118)", "reagent no.": 1, "total luciferase, z-score": 0.234, "activity call": "inactive"}
{"Target gene": "PCOLCE (GeneID 5118)", "reagent no.": 2, "total luciferase, z-score": 0.305, "activity call": "inactive"}
{"Target gene": "PCOLCE (GeneID 5118)", "reagent no.": 3, "total luciferase, z-score": 1.44, "activity call": "inactive"}
